Measurements taken from the supplement of paper PMC10849652.
The other results are listed elsewhere or left out.

Amino acid sequences for entries named in this document (tags omitted). A change or cut given only in a name is not applied to a line headed by its entry.
UniProt Q9Y295: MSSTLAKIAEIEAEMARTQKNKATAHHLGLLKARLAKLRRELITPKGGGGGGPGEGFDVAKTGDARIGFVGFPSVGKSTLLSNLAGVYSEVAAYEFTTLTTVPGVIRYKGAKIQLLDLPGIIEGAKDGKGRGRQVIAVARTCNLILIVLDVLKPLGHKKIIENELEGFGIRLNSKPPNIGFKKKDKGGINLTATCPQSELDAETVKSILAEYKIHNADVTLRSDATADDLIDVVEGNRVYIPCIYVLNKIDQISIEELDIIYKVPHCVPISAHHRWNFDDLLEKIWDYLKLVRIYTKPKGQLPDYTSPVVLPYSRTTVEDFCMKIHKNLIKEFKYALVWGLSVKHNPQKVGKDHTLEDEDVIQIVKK
UniProt Q99543: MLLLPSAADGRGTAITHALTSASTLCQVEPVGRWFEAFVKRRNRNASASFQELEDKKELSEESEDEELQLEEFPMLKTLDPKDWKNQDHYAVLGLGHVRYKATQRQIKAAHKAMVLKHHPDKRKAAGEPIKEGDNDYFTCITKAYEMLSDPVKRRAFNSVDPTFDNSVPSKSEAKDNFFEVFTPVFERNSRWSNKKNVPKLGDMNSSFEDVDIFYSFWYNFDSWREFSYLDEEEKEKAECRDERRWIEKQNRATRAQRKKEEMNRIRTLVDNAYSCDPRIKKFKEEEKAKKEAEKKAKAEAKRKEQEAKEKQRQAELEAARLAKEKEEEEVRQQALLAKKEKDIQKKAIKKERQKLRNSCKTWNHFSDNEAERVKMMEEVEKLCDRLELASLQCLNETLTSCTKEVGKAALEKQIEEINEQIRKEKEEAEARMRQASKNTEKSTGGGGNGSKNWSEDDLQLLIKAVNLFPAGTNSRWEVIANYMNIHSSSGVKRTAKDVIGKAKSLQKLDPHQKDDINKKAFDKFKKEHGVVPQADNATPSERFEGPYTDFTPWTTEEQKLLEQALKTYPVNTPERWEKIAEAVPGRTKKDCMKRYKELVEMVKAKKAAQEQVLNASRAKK
UniProt O75061: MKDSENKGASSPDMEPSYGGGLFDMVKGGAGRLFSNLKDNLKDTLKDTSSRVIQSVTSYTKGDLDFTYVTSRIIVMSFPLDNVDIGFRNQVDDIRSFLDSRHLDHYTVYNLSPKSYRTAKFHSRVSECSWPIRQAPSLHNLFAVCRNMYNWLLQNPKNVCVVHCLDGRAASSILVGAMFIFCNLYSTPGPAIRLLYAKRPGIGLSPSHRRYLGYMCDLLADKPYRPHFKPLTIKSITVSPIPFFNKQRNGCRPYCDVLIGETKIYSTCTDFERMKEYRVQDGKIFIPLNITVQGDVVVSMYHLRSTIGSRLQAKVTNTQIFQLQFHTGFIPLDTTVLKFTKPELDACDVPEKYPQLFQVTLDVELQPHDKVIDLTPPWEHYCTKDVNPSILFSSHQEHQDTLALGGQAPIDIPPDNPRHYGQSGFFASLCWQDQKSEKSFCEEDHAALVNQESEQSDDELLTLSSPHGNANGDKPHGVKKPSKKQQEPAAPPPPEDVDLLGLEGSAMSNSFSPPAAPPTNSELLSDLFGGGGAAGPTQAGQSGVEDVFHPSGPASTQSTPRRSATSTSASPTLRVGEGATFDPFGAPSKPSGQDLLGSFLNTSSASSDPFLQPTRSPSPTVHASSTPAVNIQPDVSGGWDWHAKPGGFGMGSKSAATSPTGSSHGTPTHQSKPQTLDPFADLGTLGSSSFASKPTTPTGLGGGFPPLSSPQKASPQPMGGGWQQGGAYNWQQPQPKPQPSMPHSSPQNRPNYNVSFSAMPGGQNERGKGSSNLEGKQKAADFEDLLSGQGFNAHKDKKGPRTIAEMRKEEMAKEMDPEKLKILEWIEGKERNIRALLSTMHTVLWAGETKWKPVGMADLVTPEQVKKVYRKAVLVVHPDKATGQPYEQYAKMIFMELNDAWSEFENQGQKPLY
UniProt Q9NVH1: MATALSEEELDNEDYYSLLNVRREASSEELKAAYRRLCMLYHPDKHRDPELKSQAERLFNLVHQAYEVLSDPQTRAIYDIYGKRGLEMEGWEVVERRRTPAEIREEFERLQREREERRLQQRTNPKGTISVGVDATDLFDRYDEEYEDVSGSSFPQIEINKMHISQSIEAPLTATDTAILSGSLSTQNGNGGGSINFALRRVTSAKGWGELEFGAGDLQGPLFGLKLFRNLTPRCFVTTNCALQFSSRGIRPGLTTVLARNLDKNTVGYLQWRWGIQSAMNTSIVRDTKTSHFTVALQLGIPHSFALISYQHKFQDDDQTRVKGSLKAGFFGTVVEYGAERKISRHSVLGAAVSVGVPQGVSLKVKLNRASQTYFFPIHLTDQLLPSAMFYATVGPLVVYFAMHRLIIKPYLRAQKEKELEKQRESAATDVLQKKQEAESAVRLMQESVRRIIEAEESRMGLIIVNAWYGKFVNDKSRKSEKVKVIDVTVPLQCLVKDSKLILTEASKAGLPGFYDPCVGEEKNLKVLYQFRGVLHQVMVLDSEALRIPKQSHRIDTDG
UniProt Q6ZPD9: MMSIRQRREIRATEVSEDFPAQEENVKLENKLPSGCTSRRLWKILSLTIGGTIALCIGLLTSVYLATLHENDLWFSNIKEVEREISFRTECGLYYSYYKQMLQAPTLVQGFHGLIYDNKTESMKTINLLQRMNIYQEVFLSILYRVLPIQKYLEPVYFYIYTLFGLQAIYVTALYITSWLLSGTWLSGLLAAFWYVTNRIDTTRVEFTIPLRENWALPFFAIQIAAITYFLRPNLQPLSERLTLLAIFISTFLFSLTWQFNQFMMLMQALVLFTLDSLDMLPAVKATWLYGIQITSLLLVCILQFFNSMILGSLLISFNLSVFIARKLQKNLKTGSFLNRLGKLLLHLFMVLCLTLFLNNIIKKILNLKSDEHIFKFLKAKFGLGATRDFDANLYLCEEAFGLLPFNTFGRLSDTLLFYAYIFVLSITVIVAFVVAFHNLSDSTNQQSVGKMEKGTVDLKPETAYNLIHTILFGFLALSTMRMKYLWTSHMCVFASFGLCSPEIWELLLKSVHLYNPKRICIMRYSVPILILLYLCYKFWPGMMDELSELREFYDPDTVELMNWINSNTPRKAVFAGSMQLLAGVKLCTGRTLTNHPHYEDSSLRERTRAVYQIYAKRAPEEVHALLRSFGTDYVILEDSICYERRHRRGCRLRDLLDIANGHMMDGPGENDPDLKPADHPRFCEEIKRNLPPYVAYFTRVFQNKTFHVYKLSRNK
UniProt Q13217: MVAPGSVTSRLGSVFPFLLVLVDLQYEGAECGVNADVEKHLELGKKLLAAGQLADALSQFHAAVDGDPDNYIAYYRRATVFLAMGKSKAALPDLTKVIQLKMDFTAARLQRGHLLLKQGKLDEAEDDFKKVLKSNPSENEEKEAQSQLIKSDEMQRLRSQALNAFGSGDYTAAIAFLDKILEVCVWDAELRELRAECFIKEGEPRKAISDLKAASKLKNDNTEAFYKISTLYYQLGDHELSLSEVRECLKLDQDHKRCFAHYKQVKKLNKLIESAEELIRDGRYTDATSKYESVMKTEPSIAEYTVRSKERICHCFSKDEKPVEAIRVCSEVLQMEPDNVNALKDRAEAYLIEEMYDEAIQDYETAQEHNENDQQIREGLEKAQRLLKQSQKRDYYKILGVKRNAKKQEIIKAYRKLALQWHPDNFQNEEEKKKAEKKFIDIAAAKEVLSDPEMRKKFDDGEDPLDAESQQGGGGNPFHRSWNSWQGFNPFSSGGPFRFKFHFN
UniProt Q9BQC3: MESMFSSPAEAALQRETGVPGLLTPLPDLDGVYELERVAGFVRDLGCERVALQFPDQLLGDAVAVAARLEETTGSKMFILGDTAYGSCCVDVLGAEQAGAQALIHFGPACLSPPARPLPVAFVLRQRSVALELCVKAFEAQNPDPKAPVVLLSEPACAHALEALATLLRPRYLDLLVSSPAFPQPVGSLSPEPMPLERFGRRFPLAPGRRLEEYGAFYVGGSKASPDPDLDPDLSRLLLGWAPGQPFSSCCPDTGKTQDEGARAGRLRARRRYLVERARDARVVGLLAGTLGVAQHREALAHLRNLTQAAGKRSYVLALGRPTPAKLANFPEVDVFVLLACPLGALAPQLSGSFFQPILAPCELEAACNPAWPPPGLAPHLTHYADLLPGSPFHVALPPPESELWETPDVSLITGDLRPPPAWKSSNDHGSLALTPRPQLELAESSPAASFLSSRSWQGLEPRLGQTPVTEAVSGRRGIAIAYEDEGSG
UniProt Q9NTX5: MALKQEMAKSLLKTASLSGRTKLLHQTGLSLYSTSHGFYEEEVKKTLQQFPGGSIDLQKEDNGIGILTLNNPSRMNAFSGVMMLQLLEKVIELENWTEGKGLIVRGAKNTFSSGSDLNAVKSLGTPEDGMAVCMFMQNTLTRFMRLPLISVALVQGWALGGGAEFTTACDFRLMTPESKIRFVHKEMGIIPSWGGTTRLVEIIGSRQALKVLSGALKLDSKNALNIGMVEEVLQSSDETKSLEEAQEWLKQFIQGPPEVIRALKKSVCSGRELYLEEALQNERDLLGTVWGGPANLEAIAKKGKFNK
UniProt Q9BQ95: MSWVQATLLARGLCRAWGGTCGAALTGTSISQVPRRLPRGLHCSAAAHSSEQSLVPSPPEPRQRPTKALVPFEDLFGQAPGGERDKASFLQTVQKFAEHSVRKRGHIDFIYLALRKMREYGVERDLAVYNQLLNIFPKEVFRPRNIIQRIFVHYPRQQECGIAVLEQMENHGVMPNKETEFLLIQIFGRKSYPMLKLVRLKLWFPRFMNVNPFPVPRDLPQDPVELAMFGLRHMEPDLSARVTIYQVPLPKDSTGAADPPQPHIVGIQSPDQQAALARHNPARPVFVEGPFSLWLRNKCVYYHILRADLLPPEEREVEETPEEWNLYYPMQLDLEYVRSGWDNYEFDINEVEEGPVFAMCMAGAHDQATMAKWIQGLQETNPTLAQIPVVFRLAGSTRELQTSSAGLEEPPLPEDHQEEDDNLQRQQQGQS
UniProt P42892: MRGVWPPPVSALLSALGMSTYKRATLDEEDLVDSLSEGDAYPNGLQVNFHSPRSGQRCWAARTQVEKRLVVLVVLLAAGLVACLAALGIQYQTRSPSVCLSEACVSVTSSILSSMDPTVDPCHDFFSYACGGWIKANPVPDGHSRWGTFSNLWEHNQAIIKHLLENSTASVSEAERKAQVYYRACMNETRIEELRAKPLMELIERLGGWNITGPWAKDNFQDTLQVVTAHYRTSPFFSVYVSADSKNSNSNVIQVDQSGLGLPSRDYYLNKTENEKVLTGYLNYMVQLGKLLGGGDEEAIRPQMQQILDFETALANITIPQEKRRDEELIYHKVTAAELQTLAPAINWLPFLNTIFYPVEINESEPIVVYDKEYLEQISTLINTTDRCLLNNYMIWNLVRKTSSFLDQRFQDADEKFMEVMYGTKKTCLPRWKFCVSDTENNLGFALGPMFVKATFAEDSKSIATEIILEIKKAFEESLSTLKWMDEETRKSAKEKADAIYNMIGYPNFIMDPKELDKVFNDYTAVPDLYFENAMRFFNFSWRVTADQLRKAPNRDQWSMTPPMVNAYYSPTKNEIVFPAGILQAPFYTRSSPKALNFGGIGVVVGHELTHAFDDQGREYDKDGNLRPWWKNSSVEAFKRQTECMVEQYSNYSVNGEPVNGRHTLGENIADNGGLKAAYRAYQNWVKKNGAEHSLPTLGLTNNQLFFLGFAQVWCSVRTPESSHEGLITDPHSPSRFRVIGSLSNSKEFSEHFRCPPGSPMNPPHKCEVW
UniProt O95620: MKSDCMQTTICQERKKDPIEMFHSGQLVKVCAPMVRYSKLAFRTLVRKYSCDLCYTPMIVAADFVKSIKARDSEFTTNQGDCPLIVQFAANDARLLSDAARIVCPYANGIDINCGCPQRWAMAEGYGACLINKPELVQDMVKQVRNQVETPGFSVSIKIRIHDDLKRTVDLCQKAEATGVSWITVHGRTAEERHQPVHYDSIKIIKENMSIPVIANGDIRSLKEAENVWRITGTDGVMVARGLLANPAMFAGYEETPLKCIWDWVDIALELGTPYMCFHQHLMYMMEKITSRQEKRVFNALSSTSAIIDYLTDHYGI
UniProt Q92785, whole entry, looked up: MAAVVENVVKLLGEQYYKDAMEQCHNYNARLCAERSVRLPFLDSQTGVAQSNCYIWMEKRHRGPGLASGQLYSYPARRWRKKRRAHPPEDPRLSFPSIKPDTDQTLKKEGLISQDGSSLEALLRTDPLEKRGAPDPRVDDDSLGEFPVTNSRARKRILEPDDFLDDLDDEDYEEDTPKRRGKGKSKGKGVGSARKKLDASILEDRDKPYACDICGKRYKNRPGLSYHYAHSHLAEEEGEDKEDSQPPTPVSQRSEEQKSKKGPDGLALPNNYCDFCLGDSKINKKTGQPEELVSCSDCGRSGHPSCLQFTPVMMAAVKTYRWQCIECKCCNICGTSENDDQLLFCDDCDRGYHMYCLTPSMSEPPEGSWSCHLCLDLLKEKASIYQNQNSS

How the values were obtained:
Assay in all cases: log2 fold change, soluble protein after heating vs DMSO (PISA); higher = thermal stabilisation; K562 cells, 10 uM, 30 min; active = over 0.2 and 3.5 SD of the protein, either way, in both replicates (recomputed)
saracatinib = compound: CN1CCN(CCOc2cc(OC3CCOCC3)c3c(Nc4c(Cl)ccc5c4OCO5)ncnc3c2)CC1 [saracatinib]
In short: (§1)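 For each measurement, 10 μM compound was applied for 30 min to K562 cells at 2×10^6 cells/mL. Aliquots were heated for 3 min across 48°C-58°C, pooled, and extracted in PBS with 0.5% NP-40 at 4°C; the supernatant after 21,000xg for 90 min was soluble protein. This was quantified by TMTpro 16plex LC-MS/MS with channel sums equalised, and thermal stability was reported relative to control samples from duplicates, on a log2 fold-change scale.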

sotrastaurin = compound: CN1CCN(c2nc(C3=C(c4c[nH]c5ccccc45)C(=O)NC3=O)c3ccccc3n2)CC1 [sotrastaurin]
In short: as §1

alvocidib = compound: CN1CC[C@H](c2c(O)cc(O)c3c(=O)cc(-c4ccccc4Cl)oc23)[C@H](O)C1 [alvocidib]
In short: as §1

Tubastatin A = compound: CN1CCc2c(c3ccccc3n2Cc2ccc(C(=O)NO)cc2)C1 [Tubastatin A]
In short: as §1

[1] = compound: CNC(=O)C1=CC=CC=C1NC2=NC(=NC=C2Cl)NC3=C(C=C(C=C3)N4CCOCC4)OC
In short: as §1

defactinib = compound: CNC(=O)c1ccc(Nc2ncc(C(F)(F)F)c(NCc3nccnc3N(C)S(C)(=O)=O)n2)cc1 [defactinib]
In short: as §1

rucaparib = compound: CNCc1ccc(-c2[nH]c3cc(F)cc4c3c2CCNC4=O)cc1 [rucaparib]
In short: as §1

[2] = compound: CNc1nc(-c2ccc3c(N)n[nH]c3c2)cc(N2C[C@@H](C(=O)NC3CCCCC3)CC[C@H]2C)n1
In short: as §1

encorafenib = compound: COC(=O)N[C@@H](C)CNc1nccc(-c2cn(C(C)C)nc2-c2cc(Cl)cc(NS(C)(=O)=O)c2F)n1 [encorafenib]
In short: as §1

[3] = compound: COC(=O)[C@H](CCSC)NC(=O)C1=C(C=C(C=C1)NC[C@H](CS)N)C2=CC=CC=C2
In short: as §1

[4] = compound: COC1=CC=C(C=C1)CN2C=CC3=C2C=C(C=C3)C(=O)NO
In short: as §1

filanesib = compound: CON(C)C(=O)N1N=C(c2cc(F)ccc2F)S[C@@]1(CCCN)c1ccccc1 [filanesib]
In short: as §1

zotarolimus = compound: CO[C@H]1C[C@@H]2CC[C@@H](C)[C@@](O)(O2)C(=O)C(=O)N2CCCC[C@H]2C(=O)O[C@H]([C@H](C)C[C@@H]2CC[C@H](n3cnnn3)[C@H](OC)C2)CC(=O)[C@H](C)/C=C(\C)[C@@H](O)[C@@H](OC)C(=O)[C@H](C)C[C@H](C)/C=C/C=C/C=C/1C [zotarolimus]
In short: as §1

idasanutlin = compound: COc1cc(C(=O)O)ccc1NC(=O)[C@@H]1N[C@@H](CC(C)(C)C)[C@](C#N)(c2ccc(Cl)cc2F)[C@H]1c1cccc(Cl)c1F [idasanutlin]
In short: as §1

alisertib = compound: COc1cc(Nc2ncc3c(n2)-c2ccc(Cl)cc2C(c2c(F)cccc2OC)=NC3)ccc1C(=O)O [alisertib]
In short: as §1

[5] = compound: COc1cc2nc(-c3cc(F)ccc3O)nc(N[C@@H]3CNC[C@H]3C(C)(C)O)c2cc1OC
In short: as §1

gefitinib = compound: COc1cc2ncnc(Nc3ccc(F)c(Cl)c3)c2cc1OCCCN1CCOCC1 [gefitinib]
In short: as §1

[6] = compound: COc1cccc2cc(-c3nc([C@H]4CC[C@H](C(=O)O)CC4)n4ncnc(N)c34)[nH]c12
In short: as §1

lapatinib = compound: CS(=O)(=O)CCNCc1ccc(-c2ccc3ncnc(Nc4ccc(OCc5cccc(F)c5)c(Cl)c4)c3c2)o1 [lapatinib]
In short: as §1

pictilisib = compound: CS(=O)(=O)N1CCN(Cc2cc3nc(-c4cccc5[nH]ncc45)nc(N4CCOCC4)c3s2)CC1 [pictilisib]
In short: as §1

Measured: log2 fold change

DPP7 (UniProt Q9UHL4)
inactive: saracatinib 0.017 | sotrastaurin 0.061 | alvocidib -0.006 | Tubastatin A -0.024 | [1] 0.014 | defactinib -0.021 | rucaparib 0.024 | [2] -0.032 | encorafenib -0.002 | [3] 0.012 | [4] 0.063 | filanesib 0.008 | zotarolimus -0.016 | idasanutlin -0.045 | alisertib -0.05 | [5] -0.025 | gefitinib 0.033 | [6] 0.022 | lapatinib 0.003 | pictilisib 0.056

DRG1 (UniProt Q9Y295)
inactive: saracatinib -0.014 | sotrastaurin 0.002 | alvocidib 0.072 | Tubastatin A 0.006 | [1] 0.073 | defactinib 0.09 | rucaparib 0.056 | [2] -0.015 | encorafenib 0.022 | [3] 0.016 | [4] -0.03 | filanesib 0.067 | zotarolimus -0.002 | idasanutlin 0.009 | alisertib -0.053 | [5] 0.042 | gefitinib -0.024 | [6] -0.051 | lapatinib 0.005 | pictilisib 0.002

DUT (UniProt P33316)
inactive: saracatinib -0.002 | sotrastaurin 0.066 | alvocidib -0.008 | Tubastatin A -0.005 | [1] -0.041 | defactinib 0.029 | rucaparib 0.045 | [2] -0.004 | encorafenib -0.016 | [3] -0.011 | [4] 0.005 | filanesib -0.054 | zotarolimus -0.027 | idasanutlin -0.039 | alisertib -0.129 | [5] 0.072 | gefitinib -0.023 | [6] 0.068 | lapatinib -0.024 | pictilisib 0.053

DNAJC2 (UniProt Q99543)
inactive: saracatinib -0.115 | sotrastaurin -0.205 | alvocidib 0.023 | Tubastatin A 0.102 | [1] -0.039 | defactinib -0.019 | rucaparib 0.223 | [2] 0.061 | encorafenib 0.225 | [3] -0.132 | [4] -0.002 | filanesib 0.109 | zotarolimus 0.002 | idasanutlin 0.099 | alisertib -0.035 | [5] 0.129 | gefitinib 0.006 | [6] -0.278 | lapatinib -0.025 | pictilisib -0.068

DNPEP (UniProt Q9ULA0)
inactive: saracatinib 0.054 | sotrastaurin -0.044 | alvocidib -0.004 | Tubastatin A -0.035 | [1] -0.038 | defactinib -0.019 | rucaparib -0.021 | [2] -0.011 | encorafenib -0.02 | [3] -0.011 | [4] 0.115 | filanesib -0.069 | zotarolimus -0.029 | idasanutlin -0.03 | alisertib -0.081 | [5] -0.007 | gefitinib -0.022 | [6] 0.037 | lapatinib -0.026 | pictilisib -0.006

DNAJC6 isoform 2 (UniProt O75061)
inactive: saracatinib 0.016 | sotrastaurin -0.042 | alvocidib -0.083 | Tubastatin A 0.014 | [1] -0.02 | defactinib -0.061 | rucaparib -0.006 | [2] -0.092 | encorafenib 0.023 | [3] -0.011 | [4] 0.022 | filanesib 0.063 | zotarolimus -0.023 | idasanutlin -0.028 | alisertib -0.05 | [5] 0.053 | gefitinib 0.006 | [6] 0.027 | lapatinib 0.043 | pictilisib 0.087

DNAJC11 (UniProt Q9NVH1)
inactive: saracatinib -0.034 | sotrastaurin 0.027 | alvocidib 0.002 | Tubastatin A -0.028 | [1] 0.02 | defactinib -0.036 | rucaparib -0.017 | [2] -0.017 | encorafenib -0.017 | [3] 0.019 | [4] -0.024 | filanesib -0.046 | zotarolimus 0.003 | idasanutlin -0.047 | alisertib -0.068 | [5] 0.034 | gefitinib 0.029 | [6] 0.013 | lapatinib -0.018 | pictilisib -0.053

DPY19L3 (UniProt Q6ZPD9)
inactive: saracatinib -0.151 | sotrastaurin -0.051 | alvocidib -0.062 | Tubastatin A 0.101 | [1] -0.035 | defactinib 0.011 | rucaparib -0.002 | [2] 0.05 | encorafenib -0.068 | [3] -0.033 | [4] -0.053 | filanesib 0.057 | zotarolimus -0.023 | idasanutlin -0.009 | alisertib 0.423 | [5] -0.052 | gefitinib 0.084 | [6] -0.042 | lapatinib 0.136 | pictilisib 0.016

Quoted from the results shown (two entries):
DNPEP (UniProt Q9ULA0)
inactive: saracatinib 0.054 | sotrastaurin -0.044 | alvocidib -0.004 | Tubastatin A -0.035 | [1] -0.038 | defactinib -0.019 | rucaparib -0.021 | [2] -0.011 | encorafenib -0.02 | [3] -0.011 | [4] 0.115 | filanesib -0.069 | zotarolimus -0.029 | idasanutlin -0.03 | alisertib -0.081 | [5] -0.007 | gefitinib -0.022 | [6] 0.037 | lapatinib -0.026 | pictilisib -0.006

DNAJC6 isoform 2 (UniProt O75061)
inactive: saracatinib 0.016 | sotrastaurin -0.042 | alvocidib -0.083 | Tubastatin A 0.014 | [1] -0.02 | defactinib -0.061 | rucaparib -0.006 | [2] -0.092 | encorafenib 0.023 | [3] -0.011 | [4] 0.022 | filanesib 0.063 | zotarolimus -0.023 | idasanutlin -0.028 | alisertib -0.05 | [5] 0.053 | gefitinib 0.006 | [6] 0.027 | lapatinib 0.043 | pictilisib 0.087

Carrying on.

DNAJC3 (UniProt Q13217)
inactive: saracatinib -0.06 | sotrastaurin 0.007 | alvocidib 0.037 | Tubastatin A -0.008 | [1] 0.014 | defactinib 0.028 | rucaparib 0.042 | [2] -0.038 | encorafenib 0.042 | [3] 0.01 | [4] -0.039 | filanesib 0.108 | zotarolimus 0.018 | idasanutlin -0.005 | alisertib -0.122 | [5] -0.023 | gefitinib 0.015 | [6] -0.048 | lapatinib 0.03 | pictilisib -0.001

DPH2 (UniProt Q9BQC3)
inactive: saracatinib 0.018 | sotrastaurin -0.04 | alvocidib 0.006 | Tubastatin A -0.002 | [1] -0.054 | defactinib -0.001 | rucaparib -0.006 | [2] -0.036 | encorafenib 0 | [3] 0.072 | [4] -0.049 | filanesib 0.003 | zotarolimus -0.079 | idasanutlin 0.007 | alisertib 0.021 | [5] 0.033 | gefitinib -0.016 | [6] -0.152 | lapatinib -0.044 | pictilisib -0.061

ECHDC1 (UniProt Q9NTX5)
inactive: saracatinib 0.051 | sotrastaurin 0.036 | alvocidib 0.027 | Tubastatin A -0.03 | [1] 0.009 | defactinib -0.002 | rucaparib -0.021 | [2] -0.047 | encorafenib -0.018 | [3] 0.018 | [4] -0.021 | filanesib -0.014 | zotarolimus -0.045 | idasanutlin -0.02 | alisertib 0.05 | [5] 0.023 | gefitinib 0.021 | [6] 0.055 | lapatinib -0.01 | pictilisib -0.011

ECSIT (UniProt Q9BQ95)
inactive: saracatinib 0.054 | sotrastaurin 0.055 | alvocidib 0 | Tubastatin A -0.006 | [1] -0.051 | defactinib -0.024 | rucaparib -0.006 | [2] -0.045 | encorafenib -0.001 | [3] 0.045 | [4] 0.018 | filanesib -0.007 | zotarolimus -0.061 | idasanutlin 0.01 | alisertib -0.016 | [5] 0.029 | gefitinib 0.007 | [6] 0.075 | lapatinib -0.015 | pictilisib -0.035

ECE1 (UniProt P42892)
inactive: saracatinib 0.008 | sotrastaurin -0.081 | alvocidib -0.042 | Tubastatin A -0.04 | [1] -0.065 | defactinib -0.062 | rucaparib -0.133 | [2] -0.005 | encorafenib 0.21 | [3] 0.001 | [4] 0.062 | filanesib -0.045 | zotarolimus -0.01 | idasanutlin 0.029 | alisertib 0.006 | [5] -0.092 | gefitinib -0.098 | [6] -0.007 | lapatinib 0.019 | pictilisib -0.065

EAF1 (UniProt Q96JC9)
inactive: saracatinib -0.062 | sotrastaurin -0.02 | alvocidib -0.056 | Tubastatin A 0.076 | [1] 0.009 | defactinib -0.088 | rucaparib -0.095 | [2] -0.154 | encorafenib 0.021 | [3] 0.006 | [4] 0.005 | filanesib -0.013 | zotarolimus -0.008 | idasanutlin 0.005 | alisertib -0.091 | [5] 0.034 | gefitinib 0.037 | [6] -0.017 | lapatinib -0.074 | pictilisib -0.049

DUS4L (UniProt O95620)
inactive: saracatinib 0.08 | sotrastaurin 0.099 | alvocidib -0.026 | Tubastatin A -0.034 | [1] -0.072 | defactinib -0.015 | rucaparib -0.024 | [2] 0 | encorafenib 0.025 | [3] 0.014 | [4] -0.025 | filanesib -0.112 | zotarolimus 0.053 | idasanutlin 0.002 | alisertib -0.017 | [5] 0.007 | gefitinib 0.06 | [6] 0.047 | lapatinib 0.026 | pictilisib 0.011

DPF2 (UniProt Q92785)
inactive: saracatinib 0.024 | sotrastaurin 0.098 | alvocidib -0.021 | Tubastatin A -0.025 | [1] -0.058 | defactinib -0.02 | rucaparib 0.006 | [2] -0.082 | encorafenib 0.007 | [3] 0.075 | [4] 0.049 | filanesib 0.071 | zotarolimus -0.01 | idasanutlin 0.052 | alisertib -0.093 | [5] -0.052 | gefitinib -0.025 | [6] 0.001 | lapatinib 0.017 | pictilisib -0.074
